In patent publication US5298488A (Fuji Photo Film Co., Ltd., priority 1990, dated 1994):

Experiments:
[1] = Boc solid-phase peptide synthesis; DCC; DCC/HOBt (solution phase); details: whole synthesis
[2] = general procedure: Boc solid-phase peptide synthesis; DCC; DCC/HOBt (solution phase); details: late stage modification step, hydrochloride
[3] = solution-phase peptide synthesis; DCC; DCC/HOBt (solution phase); details: coupling step

H-(Gly-Arg-Gly-Asp-Ser-Pro)-OH (RGDS; conjugated to trimellityl CM-chitin)
isolated yield [1]: 25%

Arg-Gly-Asp-Ser-Gly-NH2 (RGDS; conjugated to itaconyl CM-chitin)
step yield [2]: 86%

BocGlyAsp(Obzl)Ser((Bzl)GlyNH2
step yield [3]: 84%
